According to US7709481B2, “Phenyl-1,2,4-oxadiazolone derivatives, processes for their preparation and methods for their use as pharmaceuticals” (Sanofi-Aventis, priority 2005, dated 2010):
Some entries share one result that the patent states for a list of compounds.

The compounds below were run against T1, human PPARalpha (Homo sapiens, UniProt Q07869) (assay: Cellular PPARalpha assay (HEK PPARalpha reporter cell line, luciferase)). Conditions: nM to μM; read-out: PPARalpha EC50 values (range over examples).
T1 construct: human PPARalpha receptor (amino acids S167-Y468); expressed in transfected cells; plasmid pcDNA3
T1 sequence (Q07869 167-468): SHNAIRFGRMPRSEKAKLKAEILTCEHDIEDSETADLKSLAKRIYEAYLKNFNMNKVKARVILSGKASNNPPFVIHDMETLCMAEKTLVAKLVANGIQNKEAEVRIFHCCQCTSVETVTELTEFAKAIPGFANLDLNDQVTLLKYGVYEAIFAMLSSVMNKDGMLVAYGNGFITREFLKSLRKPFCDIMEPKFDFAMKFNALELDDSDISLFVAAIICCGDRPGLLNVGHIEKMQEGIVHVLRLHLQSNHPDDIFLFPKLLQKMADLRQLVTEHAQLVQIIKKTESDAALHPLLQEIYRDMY
Format: cell-based
Protocol: The activity of the compounds was tested as follows. The potency of substances which bind to human PPARalpha and activate it in an agonistic manner is analyzed using a stably transfected HEK cell line (HEK=human embryo kidney) which is referred to here as PPARalpha reporter cell line. It contains two genetic elements, a luciferase reporter element (pdeltaM-GAL4-Luc-Zeo) and a PPARalpha fusion protein (GR-GAL4-humanPPARalpha-LBD) which mediates expression of the luciferase reporter element depending on a PPARalpha ligand. The stably and constitutively expressed fusion protein GR-GAL4-humanPPARalpha-LBD binds in the cell nucleus of the PPARalpha reporter cell line via the GAL4 protein portion to the GAL4 DNA binding motifs 5′-upstream of the luciferase reporter element which is stably integrated in the genome of the cell line. There is only weak expression of the luciferase reporter gene in the absence of a PPARalpha ligand if fatty acid-depleted fetal calf serum (cs-FCS) is used in the assay. PPARalpha ligands bind and activate the PPARalpha fusion protein and thereby stimulate the expression of the luciferase reporter gene. The luciferase which is formed can be detected by means of chemiluminescence via an appropriate substrate.
The PPARalpha reporter cell line was prepared in two stages. Firstly, the luciferase reporter element was constructed and stably transfected into HEK cells. For this purpose, five binding sites of the yeast transcription factor GAL4 (Accession # AF264724) were cloned in 5′-upstream of a 68 bp-long minimal MMTV promoter (Accession # V01175). The minimal MMTV promoter section contains a CCAAT box and a TATA element in order to enable efficient transcription by RNA polymerase II. The cloning and sequencing of the GAL4-MMTV construct took place in analogy to the description of Sambrook J. et. al. (Molecular cloning, Cold Spring Harbor Laboratory Press, 1989). Then the complete Photinus pyralis gene (Accession # M15077) was cloned in 3′-downstream of the GAL4-MMTV element. After sequencing, the luciferase reporter element consisting of five GAL4 binding sites, MMTV promoter and luciferase gene was recloned into a plasmid which confers zeocin resistance in order to obtain the plasmid pdeltaM-GAL4-Luc-Zeo. This vector was transfected into HEK cells in accordance with the statements in Ausubel, F. M. et al. (Current protocols in molecular biology, Vol. 1-3, John Wiley & Sons, Inc., 1995).
In a second step, the PPARalpha fusion protein (GR-GAL4-humanPPARalpha-LBD was introduced into the stable cell clone described. For this purpose, initially the cDNA coding for the N-terminal 76 amino acids of the glucocorticoid receptor (Accession # P04150) was linked to the cDNA section coding for amino acids 1-147 of the yeast transcription factor GAL4 (Accession # P04386). The cDNA of the ligand-binding domain of the human PPARalpha receptor (amino acids S167-Y468; Accession # S74349) was cloned in at the 3′-end of this GR-GAL4 construct. The fusion construct prepared in this way (GR-GAL4-humanPPARalpha-LBD) was recloned into the plasmid pcDNA3 (Invitrogen) in order to enable constitutive expression therein by the cytomegalovirus promoter. This plasmid was linearized with a restriction endonuclease and stably transfected into the previously described cell clone containing the luciferase reporter element. The finished PPARalpha reporter cell line which contains a luciferase reporter element and constitutively expresses the PPARalpha fusion protein (GR-GAL4-human PPARalpha-LBD) was isolated by selection with zeocin (0.5 mg/ml) and G418 (0.5 mg/ml).
The activity of PPARalpha agonists is determined in a 3-day assay which is described below: […]

**Q.** Which EC50 does the source give for `CCC(Oc1ccc(-c2noc(=O)[nH]2)c(OC)c1)c1sc([C@H]2CC[C@H](C(F)(F)F)CC2)nc1CN1CCC(C(F)(F)F)CC1` (stereo partly drawn) [Example 57, 3-(2-Methoxy-4-{1-[2-(trans-1,4-trifluoromethyl-cyclohexyl)-4-(4-trifluoromethyl-piperidin-1-ylmethyl)-thiazol-5-yl]-propoxy}-phenyl)-4H-1,2,4-oxadiazol-5-one] here?
**A.** The EC50 was no less than 10 nM.

**Q.** How did the EC50 turn out when `Cc1nc(-c2ccc(C(F)(F)F)nc2)sc1C(OCc1ccc(-c2noc(=O)[nH]2)c(Cl)c1)C(F)(F)F` (stereo not drawn) [Example 35, 3-(2-Chloro-4-{2,2,2-trifluoro-1-[4-methyl-2-(6-trifluoromethyl-pyridin-3-yl)-thiazol-5-yl]-ethoxymethyl}-phenyl)-4H-[1,2,4]oxadiazol-5-one] was run?
**A.** Its EC50 is no less than 10 nM.

**Q.** How did the EC50 turn out when `CCN(CC)Cc1nc(C2CCCCC2)oc1COc1ccc(-c2noc(=O)[nH]2)c(Cl)c1` [Example 20, 3-[2-Chloro-4-(2-cyclohexyl-4-diethylaminomethyl-oxazol-5-ylmethoxy)-phenyl]-4H-[1,2,4]oxadiazol-5-one] was run?
**A.** Its EC50 is no less than 10 nM.

**Q.** `O=c1[nH]c(-c2ccc(OCc3sc(-c4ccc(C(F)(F)F)nc4)nc3CCCOCc3ccccc3)cc2Cl)no1` [Example 25, 3-{4-[4-(3-Benzyloxy-propyl)-2-(6-trifluoromethyl-pyridin-3-yl)-thiazol-5-ylmethoxy]-2-chloro-phenyl}-4H-[1,2,4]oxadiazol-5-one] was tested. Which EC50 did it give?
**A.** The EC50 was no less than 10 nM.

**Q.** With `Cc1nc([C@H]2CC[C@H](C(F)(F)F)CC2)sc1C(Cc1ccccc1)Oc1ccc(-c2noc(=O)[nH]2)c(Cl)c1` (stereo partly drawn) [Example 24, 3-(2-Chloro-4-{1-[4-methyl-2-(trans-1,4-trifluoromethyl-cyclohexyl)-thiazol-5-yl]-2-phenyl-ethoxy}-phenyl)-4H-[1,2,4]oxadiazol-5-one] as the compound, how does the EC50 read?
**A.** The EC50 was no less than 10 nM.

**Q.** `Cc1nc([C@H]2CC[C@H](C(F)(F)F)CC2)sc1COc1ccc(-c2noc(=O)[nH]2)c(F)c1` [Example 65, 3-{2-Fluoro-4-[4-methyl-2-(trans-1,4-trifluoromethyl-cyclohexyl)-thiazol-5-ylmethoxy]-phenyl}-4H-1,2,4-oxadiazol-5-one] was tested. Which EC50 did it give?
**A.** The EC50 was no less than 10 nM.

**Q.** How did the EC50 turn out when `Cc1nc([C@H]2CC[C@H](C(F)(F)F)CC2)sc1C(OCc1ccc(-c2noc(=O)[nH]2)c(Cl)c1)C(F)(F)F` (stereo partly drawn) [Example 34, 3-(2-Chloro-4-{2,2,2-trifluoro-1-[4-methyl-2-(trans-1,4-trifluoromethyl-cyclohexyl)-thiazol-5-yl]-ethoxymethyl}-phenyl)-4H-[1,2,4]oxadiazol-5-one] was run?
**A.** The EC50 was no less than 10 nM.

**Q.** How did the EC50 turn out when `CCC(Oc1ccc(-c2noc(=O)[nH]2)c(Cl)c1)c1sc(-c2ccc(C(F)(F)F)nc2)nc1C` (stereo not drawn) [Example 26, 3-(2-Chloro-4-{1-[4-methyl-2-(6-trifluoromethyl-pyridin-3-yl)-thiazol-5-yl]-propoxy}-phenyl)-4H-[1,2,4]oxadiazol-5-one] was run?
**A.** Its EC50 is no less than 10 nM.

**Q.** `COCc1nc(C2CCCCCC2)oc1COc1ccc(-c2noc(=O)[nH]2)c(Cl)c1` [Example 17, 3-[2-Chloro-4-(2-cycloheptyl-4-methoxymethyl-oxazol-5-ylmethoxy)-phenyl]-4H-[1,2,4]oxadiazol-5-one] was tested. Which EC50 did it give?
**A.** The EC50 was no less than 10 nM.

**Q.** How did the EC50 turn out when `Cc1nc(-c2cccc3cccnc23)sc1COc1ccc(-c2nc(=O)o[nH]2)c(Cl)c1` [Example 46, 3-[2-Chloro-4-(4-methyl-2-quinolin-8-yl-thiazol-5-ylmethoxy)-phenyl]-2H-[1,2,4]oxadiazol-5-one] was run?
**A.** The EC50 was no less than 10 nM.

**Q.** Which EC50 does the source give for `O=c1[nH]c(-c2ccc(OCc3oc(C4CCCCC4)nc3CN3CCOCC3)cc2Cl)no1` [Example 19, 3-[2-Chloro-4-(2-cyclohexyl-4-morpholin-4-ylmethyl-oxazol-5-ylmethoxy)-phenyl]-4H-[1,2,4]oxadiazol-5-one] here?
**A.** Its EC50 is no less than 10 nM.

**Q.** Which EC50 does the source give for `CCC(F)(F)C(OCc1ccc(-c2noc(=O)[nH]2)c2ccccc12)c1sc(-c2ccc(C(F)(F)F)nc2)nc1C` (stereo not drawn) [Example 42, 3-(4-{2,2-Difluoro-1-[4-methyl-2-(6-trifluoromethyl-pyridin-3-yl)-thiazol-5-yl]-butoxymethyl}-naphthalen-1-yl)-4H-[1,2,4]oxadiazol-5-one] here?
**A.** Its EC50 is no less than 10 nM.

**Q.** With `COCc1nc(/C=C/C2CCCCC2)sc1COc1ccc(-c2noc(=O)[nH]2)c(Cl)c1` [Example 22, 3-{2-Chloro-4-[2-(2-cyclohexyl-vinyl)-4-methoxymethyl-thiazol-5-ylmethoxy]-phenyl}-4H-[1,2,4]oxadiazol-5-one] as the compound, how does the EC50 read?
**A.** Its EC50 is no less than 10 nM.

**Q.** With `O=c1[nH]c(-c2cc(F)c(OCc3sc([C@H]4CC[C@H](C(F)(F)F)CC4)nc3CN3CCC(C(F)(F)F)CC3)cc2OC(F)F)no1` [Example 62, 3-{2-Difluoromethoxy-5-fluoro-4-[2-(trans-1,4-trifluoromethyl-cyclohexyl)-4-(4-trifluoromethyl-piperidin-1-ylmethyl)-thiazol-5-ylmethoxy]-phenyl}-4H-1,2,4-oxadiazol-5-one] as the compound, how does the EC50 read?
**A.** The EC50 was no less than 10 nM.

**Q.** Which EC50 does the source give for `Cc1nc([C@H]2CC[C@H](C(F)(F)F)CC2)sc1C(Oc1ccc(-c2noc(=O)[nH]2)c(Cl)c1)C(F)(F)F` (stereo partly drawn) [Example 28, 3-(2-Chloro-4-{2,2,2-trifluoro-1-[4-methyl-2-(4-trifluoromethyl-cyclohexyl)-thiazol-5-yl]-ethoxy}-phenyl)-4H-[1,2,4]oxadiazol-5-one] here?
**A.** The EC50 was no less than 10 nM.

**Q.** Which EC50 does the source give for `COc1cc(OCc2sc([C@H]3CC[C@H](C(F)(F)F)CC3)nc2CN2CCC(C(F)(F)F)CC2)ccc1-c1noc(=O)[nH]1` [Example 56, 3-{2-Methoxy-4-[2-(trans-1,4-trifluoromethyl-cyclohexyl)-4-(4-trifluoromethyl-piperidin-1-ylmethyl)-thiazol-5-ylmethoxy]-phenyl}-4H-1,2,4-oxadiazol-5-one] here?
**A.** The EC50 was no less than 10 nM.

**Q.** `CCC(Oc1ccc(-c2noc(=O)[nH]2)c(OC(F)F)c1)c1sc([C@H]2CC[C@H](C(F)(F)F)CC2)nc1C` (stereo partly drawn) [Example 53, 3-(2-Difluoromethoxy-4-{1-[4-methyl-2-(trans-1,4-trifluoromethyl-cyclohexyl)-thiazol-5-yl]-propoxy}-phenyl)-4H-1,2,4-oxadiazol-5-one] was tested. Which EC50 did it give?
**A.** Its EC50 is no less than 10 nM.

**Q.** With `Cc1nc([C@H]2CC[C@H](C(F)(F)F)CC2)sc1C(OCc1ccc(-c2noc(=O)[nH]2)c(C2CC2)c1)C(F)(F)F` (stereo partly drawn) [Example 39, 3-(2-Cyclopropyl-4-{2,2,2-trifluoro-1-[4-methyl-2-(trans,1,4-trifluoromethyl-cyclohexyl)-thiazol-5-yl]-ethoxymethyl}-phenyl)-4H-[1,2,4]oxadiazol-5-one] as the compound, how does the EC50 read?
**A.** Its EC50 is no less than 10 nM.

**Q.** How did the EC50 turn out when `CCC(Oc1cc(OC(F)F)c(-c2noc(=O)[nH]2)cc1F)c1sc([C@H]2CC[C@H](C(F)(F)F)CC2)nc1C` (stereo partly drawn) [Example 55, 3-(2-Difluoromethoxy-5-fluoro-4-{1-[4-methyl-2-(trans-1,4-trifluoromethyl-cyclohexyl)-thiazol-5-yl]-propoxy}-phenyl)-4H-1,2,4-oxadiazol-5-one] was run?
**A.** The EC50 was no less than 10 nM.

**Q.** For `Cc1nc(C2CCN(S(=O)(=O)C(F)(F)F)CC2)sc1COc1ccc(-c2noc(=O)[nH]2)c(Cl)c1` [Example 6, 3-{2-Chloro-4-[4-methyl-2-(1-trifluoromethanesulfonyl-piperidin-4-yl)-thiazol-5-ylmethoxy]-phenyl}-4H-[1,2,4]oxadiazol-5-one], which EC50 is on record?
**A.** The EC50 was no less than 10 nM.

**Q.** For `COCc1nc(C2CCCC2)oc1COc1ccc(-c2noc(=O)[nH]2)c(Cl)c1` [Example 13, 3-[2-Chloro-4-(2-cyclopentyl-4-methoxymethyl-oxazol-5-ylmethoxy)-phenyl]-4H-[1,2,4]oxadiazol-5-one], which EC50 is on record?
**A.** Its EC50 is no less than 10 nM.
